Some of the results follow. The main result of the screen is listed elsewhere. These columns were measured beside it and carry no call.
biological target: Estrogen receptor (Homo sapiens) (UniProt P03372); test: ERα coactivator peptide binding inhibitors, primary screen, biochemical, LOPAC library, TR-FRET (AID 694); conditions: TR-FRET ERalpha-coactivator peptide binding, at 15 µM, stronger effect = higher value;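 further: receptor was agonist-bound with estradiol present during the assay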

By UniProt entry, the sequences of proteins in these tests, tags left out.
UniProt P03372, whole entry, looked up: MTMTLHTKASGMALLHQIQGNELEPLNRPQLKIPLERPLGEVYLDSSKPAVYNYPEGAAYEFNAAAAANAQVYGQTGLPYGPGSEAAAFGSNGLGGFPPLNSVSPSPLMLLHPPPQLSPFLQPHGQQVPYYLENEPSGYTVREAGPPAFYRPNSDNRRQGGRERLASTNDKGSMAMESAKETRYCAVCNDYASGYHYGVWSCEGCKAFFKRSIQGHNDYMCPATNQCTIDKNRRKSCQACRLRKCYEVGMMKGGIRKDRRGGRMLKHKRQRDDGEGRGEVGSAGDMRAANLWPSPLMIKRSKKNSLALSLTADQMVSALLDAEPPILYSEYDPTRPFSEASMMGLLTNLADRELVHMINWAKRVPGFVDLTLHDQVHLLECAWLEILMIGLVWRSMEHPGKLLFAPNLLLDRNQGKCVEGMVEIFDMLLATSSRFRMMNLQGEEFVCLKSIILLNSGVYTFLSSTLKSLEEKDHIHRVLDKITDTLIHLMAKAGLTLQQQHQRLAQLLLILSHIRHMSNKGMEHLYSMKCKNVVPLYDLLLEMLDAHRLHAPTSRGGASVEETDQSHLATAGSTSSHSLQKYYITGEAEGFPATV

Row | Compound | inhibition [%]
1 | NC(=O)c1cnccn1 | 6.45
2 | N=C(N)c1ccc(N)cc1 | -6.06
3 | O=C1Cc2c([nH]c3ccc(Br)cc23)-c2ccccc2N1 | 5.71
4 | CNCCCC12CCC(c3ccccc31)c1ccccc12 | 0.91
5 | CCNC(=O)[C@H]1O[C@@H](n2cnc3c(N)nc(NCCc4ccc(CCC(=O)O)cc4)nc32)C(O)[C@H]1O (some centres not stated) | -0.99
6 | Oc1cc2c(cc1O)CN(C(=S)NCCc1ccc(Cl)cc1)CCC2 | -1.58
7 | C[C@]12C=CC(=O)C=C1CC[C@H]1[C@@H]3C[C@@H](O)[C@](O)(C(=O)CO)[C@@]3(C)C[C@H](O)[C@@]12F | -0.94
8 | CC(=O)CCCCn1c(=O)c2c(ncn2C)n(C)c1=O | 5.15
9 | O=c1c(-c2ccc(O)cc2)coc2cc(O)ccc12 | -0.78
10 | COC(=O)c1c(-c2cc(OC)c(OC)c(OC)c2)c2ccc(OCc3ccccn3)cc2c(=O)n1-c1ccc(N)cc1 | 3.91
11 | NC(=O)OCC(COC(N)=O)c1ccccc1 | -1.08
12 | COCc1nc2c([nH]1)c(=O)n(C)c(=O)n2CC(C)C | 0.03
13 | CCCCCCCCCC[Si](C)(C)CCC(=O)NC(Cc1ccc(C)cc1)c1ccccc1 (configuration not stated) | -6.18
14 | CCCCCC(O)c1cccc(OCc2ccc3ccccc3n2)c1 (configuration not stated) | -1.71
15 | OC[C@H]1O[C@@H](n2cnc3c(Nc4ccccc4)ncnc32)C(O)[C@H]1O (some centres not stated) | 7.38
16 | Cn1ccnc1 | -2.64
17 | N#C/C(=C\c1ccc(O)c(O)c1)C(=O)NCCc1ccccc1 | 5.01
18 | O=c1cc(-c2ccccc2)[nH]c2nc(Cl)ccc12 | 0.93
19 | O=c1[nH]c(=O)c2nc3ccccc3nc2[nH]1 | 2.52
20 | Oc1ccc(Cn2cc[nH]c2=S)cc1 | 3.12
21 | c1ccc(-c2ccccn2)nc1 | -5.37
22 | CC(C)C[C@H](NC(=O)C1OC1C(=O)O)C(=O)NCCCCN=C(N)N (some centres not stated) | 1.94
23 | C[C@]12C[C@H](O)[C@H]3[C@@H](CCC4=CC(=O)CC[C@@]43C)[C@@H]1CC[C@@H]2C(=O)CO | -9.64

Two records picked at random from the list so far:
Row | Compound | inhibition [%]
20 | Oc1ccc(Cn2cc[nH]c2=S)cc1 | 3.12
19 | O=c1[nH]c(=O)c2nc3ccccc3nc2[nH]1 | 2.52

Remaining list, next part:

Row | Compound | inhibition [%]
24 | Nc1c2c(nc3ccccc13)CCCC2 | -2.38
25 | CC(=O)SC1CC2=CC(=O)CC[C@]2(C)C2CC[C@@]3(C)C(CC[C@@]34CCC(=O)O4)C12 (some centres not stated) | 3.19
26 | NC(N)=NC(=O)c1nc(Cl)c(N2CCCCCC2)nc1N | 3.67
27 | O=C(c1ccc2c(c1)OCCO2)N1CCCCC1 | -2.26
28 | CC(C)CN(C)c1nc(N)c(C(=O)N=C(N)N)nc1Cl | -5.29
29 | COC(=O)C(C)(N)Cc1ccc(O)cc1 (configuration not stated) | 1.56
30 | O=C1OC(=O)C2C3CCC(O3)C12 (configuration not stated) | 4.36
31 | NCCC1CCCC(CCN)N1 (configuration not stated) | -3.21
32 | COC(=O)c1c(C)[nH]c(C)c1C(=O)c1ccccc1Cc1ccccc1 | 3.45
33 | COc1cc(C(O)CO)ccc1OS(=O)(=O)O (configuration not stated) | 6.49
34 | CC(C(=O)O)c1cccc(C(=O)c2ccccc2)c1 (configuration not stated) | 1.26
35 | O=C1O/C(=C/Br)CCC1c1cccc2ccccc12 (configuration not stated) | -3.43
36 | CCOC(=O)c1ncn2c1CN(C)C(=O)c1cc(F)ccc1-2 | -5.94
37 | O=NN(CCCl)C(=O)NCCCl | 2.36
38 | CC[C@H](NC(=O)c1c(C)c(-c2ccccc2)nc2ccccc12)c1ccccc1 | -2.63
39 | NCC(O)(CS(=O)(=O)O)c1ccc(Cl)cc1 (configuration not stated) | -1.52
40 | CCCC(=O)NCCc1c2n(c3ccc(OC)cc13)Cc1ccccc1-2 | 8.15
41 | NCC1OC(O[C@@H]2[C@H](O)C(OC3C(O)C(N)CC(N)C3OC3OC(CO)C(O)C(O)C3N)O[C@@H]2CO)C(N)C(O)C1O (some centres not stated) | -1.29
42 | C[N+](C)(CCCCCC[N+](C)(C)CCCN1C(=O)c2cccc3cccc(c23)C1=O)CCCN1C(=O)c2cccc3cccc(c23)C1=O | 4.12
43 | CC(=O)O[C@H]1C(=O)[C@@]2(C)C([C@H](OC(=O)c3ccccc3)[C@]3(O)C[C@H](OC(=O)[C@H](O)[C@@H](NC(=O)c4ccccc4)c4ccccc4)C(C)=C1C3(C)C)[C@]1(OC(C)=O)CO[C@@H]1C[C@@H]2O (some centres not stated) | 1.91
44 | O=c1onc2n1-c1cc(Br)ccc1OC2 | 1.61
45 | Cc1ccc(/C(=C\CN2CCCC2)c2ccccn2)cc1 | 0.44
46 | CNCCC=C1c2ccccc2CCc2ccccc21 | 3.17

Row | Compound | inhibition [%]
47 | Cn1cc(C2=C(c3ccc(Cl)cc3Cl)C(=O)NC2=O)c2ccccc21 | 20.1
48 | COc1cc(OC)c(/C=C2/C(=O)Nc3ccccc32)c(OC)c1 | -5.44
49 | COc1cc2nc(N3CCN(C(=O)OCc4ccccc4)C(C(=O)NC(C)(C)C)C3)nc(N)c2cc1OC (configuration not stated) | 2.03
50 | Cc1ccc(C(=O)Nc2ccc(S(=O)(=O)O)c3cc(S(=O)(=O)O)cc(S(=O)(=O)O)c23)cc1NC(=O)c1cccc(NC(=O)Nc2cccc(C(=O)Nc3cc(C(=O)Nc4ccc(S(=O)(=O)O)c5cc(S(=O)(=O)O)cc(S(=O)(=O)O)c45)ccc3C)c2)c1 | 15.1
51 | NC(=O)c1ncn([C@@H]2O[C@H](CO)[C@@H](O)[C@H]2O)c1O | -0.32
52 | Cn1c(=O)c2[nH]c(-c3ccc(S(=O)(=O)O)cc3)nc2n(C)c1=O | -4.48
53 | FC(F)(F)c1cc(CO[C@H]2CCCN[C@H]2c2ccccc2)cc(C(F)(F)F)c1 | -2.19
54 | CC(N)(C(=O)O)c1ccc(C(=O)O)cc1 (configuration not stated) | -2.05
55 | CC#CCOC(=O)c1c(C)nc2sc3c(c2c1N)CCC(O)C3 (configuration not stated) | -0.68
56 | CN1CCc2cccc3c2C1Cc1ccc(O)c(O)c1-3 (configuration not stated) | 1.36
57 | O=C(O)C1=CCNCC1 | -1.31
58 | CCn1cc(C(=O)O)c(=O)c2cc(F)c(N3CCNC(C)C3)c(F)c21 (configuration not stated) | -2.39
59 | O=c1ccc2c(OCCCCc3ccccc3)c3ccoc3cc2o1 | -3.76
60 | C[C@]12C=CC(=O)C=C1CC[C@@H]1C2=CC[C@]2(C)[C@@H](C(=O)CN3CCN(c4cc(N5CCCC5)nc(N5CCCC5)n4)CC3)CC[C@@H]12 | -4.73
61 | NC(N)=N/N=C/c1c(Cl)cccc1Cl | 2.85
62 | CN(C)CCC=C1c2ccccc2C=Cc2ccccc21 | 2.12
63 | NS(=O)(=O)c1cc2c(cc1Cl)NCNS2(=O)=O | 14.4
64 | CC1=C(/C=C/C(C)=C/C=C/C(C)=C/C(=O)Nc2ccc(O)cc2)C(C)(C)CCC1 | 8.26
65 | COc1cc2c(cc1OC)[C@@H](c1ccccc1)CN(C)CC2 | -4.22
66 | CCN(CC)C(C)C(=O)N1c2ccccc2Sc2ccccc21 (configuration not stated) | 0.36
67 | CC(=O)OCC(=O)[C@@]1(O)CC[C@H]2[C@@H]3CCC4=CC(=O)CC[C@]4(C)[C@H]3C(=O)C[C@@]21C | 2.85
68 | CN1CCC2(CCN3CCc4c(oc5ccccc45)C3C2)N(C)C1=O (configuration not stated) | -8.25
69 | Cn1cc(C(=O)OCC2CCN(CCNS(C)(=O)=O)CC2)c2ccccc21 | -1.85

Row | Compound | inhibition [%]
70 | COc1cc2nc(N3CCN(C(=O)C4CCCO4)CC3)nc(N)c2cc1OC (configuration not stated) | -0.94
71 | COc1ccc(CCN(C)CCc2ccc(OC)c(OC)c2)cc1OC | 5.81
72 | Cc1ccccc1/C=C/C1=NCCN1 | -3.56
73 | O=c1[nH]cc(F)c(=O)[nH]1 | -1.46
74 | COC(=O)C1=C(C)NC(C)=C(C(=O)OC)C1c1ccccc1[N+](=O)[O-] | 3.28
75 | CCCCCCCCCCCCCCCCCCOC[C@H](COP(=O)([O-])OCC[N+](C)(C)C)OC | -2.04
76 | CNc1cc(NS(=O)(=O)c2ccc(N)cc2)nc(NC)n1 | -6.18
77 | CC1=C(C)C(=O)C(CCCCC#CCCCC#CCO)=C(C)C1=O | -0.77
78 | CC(N)(Cc1ccc(O)cc1)C(=O)O (configuration not stated) | -6.26
79 | O=C(O)[C@@H]1C[C@@H](C(=O)O)N1 | -2.41
80 | N[C@H](C(=O)O)[C@H](O)C(=O)O | -0.26
81 | CN=C(NC#N)NCCSCc1nc[nH]c1C | 1.03
82 | N=C(N)SCCc1cnc[nH]1 | -3.53
83 | CC(=O)NNC(=O)N1Cc2ccccc2Oc2ccc(Cl)cc21 | 4.78
84 | CCCCCCN(CCCCCC)C(=O)Cc1c(-c2ccc(F)cc2)[nH]c2ccccc12 | 5.53
85 | CCN(CC)CCNC(=O)c1ccc(NC(C)=O)cc1 | -4.84
86 | CCCC[C@@]1(C2CCCC2)Cc2cc(OCC(=O)O)c(Cl)c(Cl)c2C1=O | 3.63
87 | CCN(CC)CCCC(C)Nc1ccnc2cc(Cl)ccc12 (configuration not stated) | 1.7
88 | C[C@](N)(Cc1ccc(O)cc1)C(=O)O | -5.82
89 | CNCCNS(=O)(=O)c1cccc2cnccc12 | 1.96
90 | c1ccc2c(c1)CCCC2C1=NCCN1 (configuration not stated) | -2.37
91 | CN=c1nc(-c2ccccc2)n(-c2ccccc2)s1 | 6.98
92 | O=C(O)C1CCNCC1 | -4.19

Row | Compound | inhibition [%]
93 | CC1(C)CCC(NC(=O)[C@@H](N)CCC(=O)O)CC1 | 0.14
94 | CC1(C)CCC=[N+]1[O-] | -4.31
95 | N#C/C(=C\c1ccc(O)c(O)c1)C(=O)Nc1ccccc1 | 6.56
96 | CCCCCCCCCCCCCCCC(=O)NCC(COP(=O)([O-])OCC[N+](C)(C)C)OCC (configuration not stated) | 31.9
97 | O=C1NC(=O)C(c2ccccc2[N+](=O)[O-])=C1Nc1ccc(O)c(Cl)c1 | -0.74
98 | Cc1ccc(N(CC2=NCCN2)c2cccc(O)c2)cc1 | 5.88
99 | O=C(O)CCc1nc(-c2ccccc2)c(-c2ccccc2)o1 | 4.11
100 | Clc1ccc2c(c1)C(N1CCNCC1)=Nc1ccccc1O2 | 0.16
101 | NCCCCC(=O)O | -3.39
102 | OCCN1CCN(CCCN2c3ccccc3Sc3ccc(C(F)(F)F)cc32)CC1 | 9.29
103 | CC(C(=O)O)c1ccc(CC2CCCC2=O)cc1 (configuration not stated) | 1.71
104 | CCOC(=O)N1CCC(=C2c3ccc(Cl)cc3CCc3cccnc32)CC1 | -1.9
105 | CCCCN1CCC(n2c(=O)[nH]c3ccccc32)CC1 | 0.6
106 | O=C(OCCN1CCOCC1)C1(c2ccccc2)CCCCC1 | 0.17
107 | C[C@]12CCC(=O)C=C1CC[C@@H]1[C@@H]2C(=O)C[C@@]2(C)[C@H]1CC[C@]2(O)C(=O)CO | 0.25
108 | COCCCC/C(=N\OCCN)c1ccc(C(F)(F)F)cc1 | 2.18
109 | CN1CCN(C2=Nc3ccccc3Oc3ccc(Cl)cc32)CC1 | -1.22
110 | CCN(CC)CCOC(=O)C1(C2CCCCC2)CCCCC1 | -8.91
111 | C#CC(N)CCC(=O)O (configuration not stated) | 0.63
112 | COC(=O)C1=C(C)NC(C)=C([N+](=O)[O-])C1c1ccccc1C(F)(F)F (configuration not stated) | -2.69

Entries shown so far that contain a nitro group on carbon, in the order listed:
Row | Compound | inhibition [%]
74 | COC(=O)C1=C(C)NC(C)=C(C(=O)OC)C1c1ccccc1[N+](=O)[O-] | 3.28
97 | O=C1NC(=O)C(c2ccccc2[N+](=O)[O-])=C1Nc1ccc(O)c(Cl)c1 | -0.74
112 | COC(=O)C1=C(C)NC(C)=C([N+](=O)[O-])C1c1ccccc1C(F)(F)F (configuration not stated) | -2.69

Source: PubChem BioAssay AID694 (Emory University Molecular Libraries Screening Center, 2007)
